This note sets out measurements from paper PMC7819943, “Rice protein-binding microarrays: a tool to detect cis-acting elements near promoter regions in rice”.

The other results are listed elsewhere or left out.

In the experiment the target is T1, OsSMF1 (Oryza sativa, UniProt Q6ZLB0 1-436).
T1 sequence: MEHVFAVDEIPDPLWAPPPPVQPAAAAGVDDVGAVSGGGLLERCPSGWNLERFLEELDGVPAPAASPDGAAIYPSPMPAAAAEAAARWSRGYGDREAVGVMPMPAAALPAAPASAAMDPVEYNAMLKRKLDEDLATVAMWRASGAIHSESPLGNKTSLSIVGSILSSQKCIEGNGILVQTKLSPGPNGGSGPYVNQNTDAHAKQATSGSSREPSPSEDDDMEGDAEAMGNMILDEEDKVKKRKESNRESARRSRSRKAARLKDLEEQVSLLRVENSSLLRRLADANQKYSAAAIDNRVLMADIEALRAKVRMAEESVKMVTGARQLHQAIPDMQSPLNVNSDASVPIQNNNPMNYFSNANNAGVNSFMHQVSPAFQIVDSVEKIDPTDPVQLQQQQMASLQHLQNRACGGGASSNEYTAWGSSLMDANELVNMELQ
Put plainly: protein-binding microarray (RPBM); PBS, 2% BSA, 51.3 ng/ul salmon testes DNA, 50 uM zinc acetate, 200 nM TF, 25 C, 1 h; high values mean tight binding. The conditions noted are these: protein: recombinant; tags: N-terminal polyhistidine and DsRed monomer fusion (pET32a); chain copies: 2; label: CyDye5-dUTP incorporated in the synthesized complementary strand; 3' TTTTT single-stranded linker to array surface; dsDNA, one strand shown. The essentials:
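Ni–NTA purification followed expression in E. coli BL21-CodonPlus of transcription factors fused N-terminally to a polyhistidine tag and DsRed. At 200 nM in PBS with 2% BSA, salmon testes DNA and 50 µM zinc acetate, the protein was incubated for 1 h at 25 °C with a custom Agilent array that had been primer-extended with Cy5-dUTP and blocked with 2% BSA. After washing, the array was read on an Axon 4000B scanner. The binding signal is per-feature fluorescence intensity in arbitrary units.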
As for “TACTCGCAACCGTGGCGGCCACGCCGGCGATTGCACCCGCCGGAGTCACCTAGTGCAG”, the binding signal is 3420 fluorescence intensity (a.u.).

Take “TTAATTTAGATTGTATAAGTGTGCGTAGGCTATGACTTGTCGGAGTCACCTAGTGCAG”: the binding signal was 4370 fluorescence intensity (a.u.).

On to “ATTGTTGACACTATGACTTTCTTACTTTGACCGCAATTTTCGGAGTCACCTAGTGCAG”, for which the binding signal was 3720 fluorescence intensity (a.u.).

In the case of “CTAGCCAGCCTAGCAACGTGTCATCAGAGGAAAGAAGTCGCGGAGTCACCTAGTGCAG”, the binding signal was 4160 fluorescence intensity (a.u.).

Regarding “CCGTTTGCCACGTCAGCTTGCCGCTCCAAAGGTGGGCGGCCGGAGTCACCTAGTGCAG”, the binding signal is 18800 fluorescence intensity (a.u.).

As to “CTCCACCACACATGCTTCAAGTGACTAGGAGGGCATCCTCCGGAGTCACCTAGTGCAG”, the binding signal was 4410 fluorescence intensity (a.u.).

For “CGGCGCAGATCCGGCGAGCGGCGGCGGCGGAAGCTGATGGCGGAGTCACCTAGTGCAG”, the binding signal was 39900 fluorescence intensity (a.u.).

Consider “CTCCAGTGTGCTCGGGGCGTTCTTCCATGTCAGTGCGATCCGGAGTCACCTAGTGCAG”, for which the binding signal was 3710 fluorescence intensity (a.u.).

As for “CCTGATCCAGTACTGTTAAACACCAAGATAGATATATAGACGGAGTCACCTAGTGCAG”, the binding signal is 12200 fluorescence intensity (a.u.).

Turning to “AAAACATTTGGAAAATAATTAGAATAGTTGTTTGACATGACGGAGTCACCTAGTGCAG”, the binding signal is 5080 fluorescence intensity (a.u.).

Regarding “TGGTTGAGAAATGTTATGTCGTTGCACAACACCCATTTGTCGGAGTCACCTAGTGCAG”, the binding signal was 3410 fluorescence intensity (a.u.).

For the sequence “CACACACCGACATCGCCAACACACAAACCCAGGAGAAGTCCGGAGTCACCTAGTGCAG”, the binding signal is 3400 fluorescence intensity (a.u.).

As for “GACGGCTCAGCGTGAGGATGATGACGCGGCGCGTGATAGGCGGAGTCACCTAGTGCAG”, the binding signal was 13300 fluorescence intensity (a.u.).

Consider “GCACATTAATCGAAGCTAACCACGTGGTGATTAGATAGTACGGAGTCACCTAGTGCAG”, for which the binding signal was 5380 fluorescence intensity (a.u.).

Consider “GGCGGTGGACGCGTACGTGCTGGCGCCGCTGCAGCTGGCGCGGAGTCACCTAGTGCAG”, for which the binding signal is 7570 fluorescence intensity (a.u.).

For “CTGTTTTCCCCTTCTTGGTAGCGCGTACGTCGTACTACTTCGGAGTCACCTAGTGCAG”, the binding signal is 3240 fluorescence intensity (a.u.).

In the case of “CCTCCTCCCCTCTCCACGTCACTGCGCGGTGGGCCCGCGCCGGAGTCACCTAGTGCAG”, the binding signal was 24200 fluorescence intensity (a.u.).

For “CGTCTGCCACGCCTTCTTGAACAGTTTCCCCAATTTTCTGCGGAGTCACCTAGTGCAG”, the binding signal was 3480 fluorescence intensity (a.u.).

“GGCTATTTTGTATCACAAATTGTCAATGTTTTAGGTTCTCCGGAGTCACCTAGTGCAG”: the binding signal was 5090 fluorescence intensity (a.u.).

As for “ATGTTTTGCCTTTTATAATTATACGTGTGTAAATCATATGCGGAGTCACCTAGTGCAG”, the binding signal was 3460 fluorescence intensity (a.u.).

Turning to “AAAATAGTCTCCACGTTGGTGAACTCGTTGCTTGATGGGACGGAGTCACCTAGTGCAG”, the binding signal is 3870 fluorescence intensity (a.u.).

In the case of “GAACATTCAAAATGACTCACCATGCAGAACACAGCGCAGTCGGAGTCACCTAGTGCAG”, the binding signal was 7710 fluorescence intensity (a.u.).

With “GGCGACCTCTCCTTCTCCGATGGTGGCCTATCGCCTCTGTCGGAGTCACCTAGTGCAG”, the binding signal was 3550 fluorescence intensity (a.u.).

Consider “TTAAATGGTCATTCCTGTGTTTTACAATCATATATCTTACCGGAGTCACCTAGTGCAG”, for which the binding signal was 3990 fluorescence intensity (a.u.).

For the sequence “AGGTAATTGAGTATGCAGTAAGCAGTTGATGTGTATCTGTCGGAGTCACCTAGTGCAG”, the binding signal was 3860 fluorescence intensity (a.u.).

Consider “TTCCGTTTCTAGGAGTAGCATGACTCAGCGAGCAATCCGTCGGAGTCACCTAGTGCAG”, for which the binding signal is 7760 fluorescence intensity (a.u.).

On to “ACCCAGTGCAGCTCGGGGACCGTACGACCGATCTGGCACGCGGAGTCACCTAGTGCAG”, for which the binding signal is 3660 fluorescence intensity (a.u.).

Turning to “GTGTGTGTGTGGCGTCACTCCATCGTTTTCCCCTGGGCGGCGGAGTCACCTAGTGCAG”, the binding signal was 8910 fluorescence intensity (a.u.).

With “CACTCGCTCGCCACACACCATCACCCATGCGCGCTAATTACGGAGTCACCTAGTGCAG”, the binding signal was 3710 fluorescence intensity (a.u.).

In the case of “CGACCTCGTCCTCCACCCCACCCATCTCCGACGCCGCGGACGGAGTCACCTAGTGCAG”, the binding signal is 4600 fluorescence intensity (a.u.).

As for “GTGGTGTGCATGCAGCAGCAAGCATATCGCGCACACGACGCGGAGTCACCTAGTGCAG”, the binding signal is 3880 fluorescence intensity (a.u.).

With “TTTAAAGTGAAAATATTATGTATGACTTGGTTCACGATAACGGAGTCACCTAGTGCAG”, the binding signal is 3260 fluorescence intensity (a.u.).

In the case of “TGCACCACCTCCTGTACTGTTTCTTCCTTCAACCATCTAGCGGAGTCACCTAGTGCAG”, the binding signal was 3600 fluorescence intensity (a.u.).

Consider “CTTTCCCTCAGCTCTGTCACCTCTCTCGCGCGTCGGCGGCCGGAGTCACCTAGTGCAG”, for which the binding signal is 3590 fluorescence intensity (a.u.).

As to “CTCCTGAAGTTACTAGCACGTCATTTTGAGCTTTACTCTACGGAGTCACCTAGTGCAG”, the binding signal was 3620 fluorescence intensity (a.u.).

As to “CTAAATCCTCGGGTCCACATGTCATACTCAGCCTCTTTACCGGAGTCACCTAGTGCAG”, the binding signal is 5460 fluorescence intensity (a.u.).

In the case of “GATTGCTTTGAGAGGTACTAGTACAGCATTTTAGCATAGACGGAGTCACCTAGTGCAG”, the binding signal is 19200 fluorescence intensity (a.u.).

For “AAGGATATTTGCCTGACCAGACGTAAGCCTGAGACCAGCCCGGAGTCACCTAGTGCAG”, the binding signal was 3140 fluorescence intensity (a.u.).

Consider “GGAGGTCGGTCGGCGTTCGGTGGTGGCTGCGGCGACCCGACGGAGTCACCTAGTGCAG”, for which the binding signal was 3760 fluorescence intensity (a.u.).

Consider “CAGTCCAGTCAAGAACCGACTGGATGAGCTGTCAGCCGTGCGGAGTCACCTAGTGCAG”, for which the binding signal is 4560 fluorescence intensity (a.u.).

With “ACACGCGGTGAAGGTGGTGGCGAAGTCGTCATAGCCTTCACGGAGTCACCTAGTGCAG”, the binding signal was 3250 fluorescence intensity (a.u.).

For “ATCGGTACCGAACTAGGCCCACCTTGCTTATGTGGCAAACCGGAGTCACCTAGTGCAG”, the binding signal was 9280 fluorescence intensity (a.u.).

Turning to “TTATTCATACATGTCACTGCCAGGCTGCTGTCTACTTCTTCGGAGTCACCTAGTGCAG”, the binding signal is 4950 fluorescence intensity (a.u.).

For the sequence “GACTAGCTGGCCAGCGGCCTAGCGTTGTACTCTATCCATCCGGAGTCACCTAGTGCAG”, the binding signal was 10100 fluorescence intensity (a.u.).

Turning to “CACCTATAAACGCTCCTCGCCATCCCACTGACGCCGCCTTCGGAGTCACCTAGTGCAG”, the binding signal is 3810 fluorescence intensity (a.u.).

As for “GTCGTGGAGGCCGGCACGCACGACGAGCTCTTGGGGATGGCGGAGTCACCTAGTGCAG”, the binding signal was 3600 fluorescence intensity (a.u.).

Turning to “GTAGAAAACTTTGCAGACGTGTACATAAACACTGCGATAGCGGAGTCACCTAGTGCAG”, the binding signal was 4950 fluorescence intensity (a.u.).

Regarding “GTATTCTGATCATGCGGCTATCCTAGTACTCTCGAGCACCCGGAGTCACCTAGTGCAG”, the binding signal is 23900 fluorescence intensity (a.u.).

On to “TCCCATTGATTTGATCCAGCTAATTAATTAATTCGATCCACGGAGTCACCTAGTGCAG”, for which the binding signal was 3460 fluorescence intensity (a.u.).

For the sequence “ACTGGCTTGAAATTAGCTAAAAGATGACAAAGCAGTTGGCCGGAGTCACCTAGTGCAG”, the binding signal was 4570 fluorescence intensity (a.u.).

In the case of “AGCCCCGCCACCTCAAACAGTTTGGTAAACCCTAGCCATGCGGAGTCACCTAGTGCAG”, the binding signal is 3300 fluorescence intensity (a.u.).

For “CCCACCCCGCGTGCAGCTTAGGCGAACCCTCCTCCCTCCGCGGAGTCACCTAGTGCAG”, the binding signal is 3660 fluorescence intensity (a.u.).

On to “GCCCACATGTCAGCCACACGCCACCTCGCACGTGCGTCACCGGAGTCACCTAGTGCAG”, for which the binding signal is 6800 fluorescence intensity (a.u.).

As for “ACTACCAGGCGGCAGCGGTGACGCCACCCGCGCCCGCGCCCGGAGTCACCTAGTGCAG”, the binding signal is 4740 fluorescence intensity (a.u.).
